Experimental data as given in publication doi:10.1101/2021.07.08.451585.

Biological target: T1, endogenously 3xHA-tagged CLUH protein of mouse embryonic stem cells (mouse (endogenous in mESC)) (UniProt Q5SW19)
T1 sequence: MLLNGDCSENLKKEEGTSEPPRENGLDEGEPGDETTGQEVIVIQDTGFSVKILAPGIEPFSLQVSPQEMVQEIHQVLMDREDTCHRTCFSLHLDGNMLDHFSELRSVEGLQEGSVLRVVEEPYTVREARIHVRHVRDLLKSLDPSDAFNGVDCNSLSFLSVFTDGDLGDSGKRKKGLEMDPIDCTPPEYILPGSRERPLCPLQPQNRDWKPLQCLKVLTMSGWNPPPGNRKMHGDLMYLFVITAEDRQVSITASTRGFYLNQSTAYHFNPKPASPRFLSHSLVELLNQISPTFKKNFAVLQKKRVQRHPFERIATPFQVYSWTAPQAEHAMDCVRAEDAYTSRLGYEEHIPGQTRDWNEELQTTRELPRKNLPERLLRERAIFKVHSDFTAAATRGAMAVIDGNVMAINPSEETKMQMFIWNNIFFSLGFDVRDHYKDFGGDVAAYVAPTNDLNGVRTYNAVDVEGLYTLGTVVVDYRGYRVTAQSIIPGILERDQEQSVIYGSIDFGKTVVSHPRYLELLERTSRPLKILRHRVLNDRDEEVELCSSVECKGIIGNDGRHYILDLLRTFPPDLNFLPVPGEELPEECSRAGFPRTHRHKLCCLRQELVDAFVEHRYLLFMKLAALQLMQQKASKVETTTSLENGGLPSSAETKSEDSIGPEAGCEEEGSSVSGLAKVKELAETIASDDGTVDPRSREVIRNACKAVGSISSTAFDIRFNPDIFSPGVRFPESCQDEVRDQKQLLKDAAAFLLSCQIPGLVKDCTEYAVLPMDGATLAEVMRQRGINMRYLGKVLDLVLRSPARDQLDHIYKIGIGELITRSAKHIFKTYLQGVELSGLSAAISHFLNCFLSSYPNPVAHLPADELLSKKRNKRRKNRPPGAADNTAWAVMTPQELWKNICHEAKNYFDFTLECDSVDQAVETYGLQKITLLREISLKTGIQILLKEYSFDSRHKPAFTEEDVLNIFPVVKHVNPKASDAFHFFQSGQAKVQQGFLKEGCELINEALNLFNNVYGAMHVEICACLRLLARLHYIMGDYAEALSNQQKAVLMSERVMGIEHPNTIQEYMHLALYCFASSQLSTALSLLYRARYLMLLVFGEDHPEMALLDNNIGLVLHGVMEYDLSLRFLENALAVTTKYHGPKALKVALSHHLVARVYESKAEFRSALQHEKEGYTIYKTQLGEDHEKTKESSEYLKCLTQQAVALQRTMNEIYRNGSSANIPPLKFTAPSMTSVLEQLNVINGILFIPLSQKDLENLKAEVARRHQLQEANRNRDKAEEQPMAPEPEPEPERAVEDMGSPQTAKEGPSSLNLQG
Assay: affinity purification with mass spectrometry

B1: SPAG5, endogenous in mouse embryonic stem cells (protein, UniProt Q7TME2 1-1165)
chain: MWRVKTLNLGLSPSPQKGKPAMSTPLRELKLQPEALADSGKGPSMISALTPYLCRLELKERCNNSSPVDFINTENNFLSEQFSHPSTHIEACQRESDPTPESNSLFHTLEEAIETVDDFVVDPRDDSIVESMVLLPFSLGQQQDLMLQAHLDTTAERTKSSLNESLGLEDLVGKEVAPCVEDSLTEIVAIRPEQPTFQDPPLGPSDTEDAPVDLVPSENVLNFSLARLSPSAVLAQDFSVDHVDPGEETVENRVLQEMETSFPTFPEEAELGDQAPAANAEAVSPLYLTSSLVEMGPREAPGPTVEDASRIPGLESETWMSPLAWLEKGVNTSVMLQNLRQSLSFSSVLQDAAVGNTPLATCSVGTSFTPPAPLEVGTKDSTSETERLLLGCRPPDLATLSRHDLEENLLNSLVLLEVLSHQLQAWKSQLTVPHREARDSSTQTDSSPCGVTKTPKHLQDSKEIRQALLQARNVMQSWGLVSGDLLSLLHLSLTHVQEGRVTVSQESQRSKTLVSSCSRVLKKLKAKLQSLKTECEEARHSKEMALKGKAAAEAVLEAFRAHASQRISQLEQGLTSMQEFRGLLQEAQTQLIGLHTEQKELAQQTVSLSSALQQDWTSVQLNYGIWAALLSWSRELTKKLTAKSRQALQERDAAIEEKKQVVKEVEQVSAHLEDCKGQIEQLKLENSRLTADLSAQLQILTSTESQLKEVRSQHSRCVQDLAVKDELLCQLTQSNKEQATQWQKEEMELKHIQAELLQQQAVLAKEVQDLRETVEFIDEESQVAHRELGQIESQLKVTLELLRERSLQCETLRDTVDSLRAELASTEAKHEKQALEKTHQHSQELRLLAEQLQSLTLFLQAKLKENKAESEIILPSTGSAPAQEHPLSNDSSISEQTPTAAVDEVPEPAPVPLLGSVKSAFTRVASMASFQPTETPDLEKSLAEMSTVLQELKSLCSLLQESKEEATGVLQREICELHSRLQAQEEEHQEALKAKEADMEKLNQALCLLRKNEKELLEVIQKQNEKILGQIDKSGQLINLREEVTQLTQSLRRAETETKVLQEALEGQLDPSCQLMATNWIQEKVFLSQEVSKLRVMFLEMKTEKEQLMDKYLSHRHILEENLRRSDTELKKLDDTIQHVYETLLSIPETMKSCKELQGLLEFLS
For B1, the binding was “binds”.

B2: KNSTRN, endogenous in mouse embryonic stem cells (protein, UniProt Q9D9Z1 1-312)
chain: MAAPEAEAQETAFRTTGPPTDSEPRPFPPSSRKFPFESAAADSNEDWAVAAEHYLKGSGENGGWEQPAPGVQPSHPATMASAKTVCDAQPHSMPSCGLPADTQTRATSKLPVKSKEADLLRHLHPGGPEPDVTKVTKSRRENGQVKAAETASRRNLRNSYKPFNKQKPEEELKDKNELLEAVNKQLHQKLTETQGELKDLTQKVELLEKFQDNCLALLESKGLNPGQETLASKQEPTTDHTDSMLLLETLKDELKVFNETAKKQMEELQALKVKLKLKEEESVQFLEQQTLCKDEASDFTIILEEMEQLLEM
In the case of B2, the binding is reported as “binds”.

These are yes or no findings as the source states them, for the method shown. In cells and extracts the contact can be indirect. A yes stands for co-enrichment or nearness to the bait. Other partners may have been found. Where a sequence is shown, tags or fusion partners need not be part of it.
